Measured values from patent US11433087B2, “Anti-tumor compound with high CD169 affinity, method thereof, and use thereof” (Xiamen Nuokangde Biological Technology Co., Ltd., priority 2017, dated 2022).

System: mouse melanoma cells (B16F10)
Assay: Distribution of TCC-Neu5Ac in mouse melanoma cells by laser confocal microscope and ImageJ analysis
Assay type: cell-based

`CC(=O)N[C@@H]1C(O)C[C@](O)(C(=O)O)OC1C(O)C(O)CNC(=O)c1cc2c(s1)-c1ccccc1OC2` (some centres unmarked) [TCC-Neu5Ac, 9-benzopyranothiophene-n-acetylneuraminic acid monosaccharide] was tested, and the “distribution on cell surfaces (gray value vs distance, ImageJ dot-plot analysis)” value (B16F10 cell image analysis, FIG. 3) was “mainly distributed on the cell membranes” and the “distribution of TCC-Neu5Ac in the mouse melanoma cells” value (B16F10 cells, 100 μmol (100 μM), 24 hours, confocal, excitation 405 nm, FIG. 2) was “distributed inside of the B16F10 cells and cell membranes of the B16F10 cells”.
